In the assay the target is T1, OsWRKY45-BD (rice) (UniProt Q5W6D6).
T1 sequence: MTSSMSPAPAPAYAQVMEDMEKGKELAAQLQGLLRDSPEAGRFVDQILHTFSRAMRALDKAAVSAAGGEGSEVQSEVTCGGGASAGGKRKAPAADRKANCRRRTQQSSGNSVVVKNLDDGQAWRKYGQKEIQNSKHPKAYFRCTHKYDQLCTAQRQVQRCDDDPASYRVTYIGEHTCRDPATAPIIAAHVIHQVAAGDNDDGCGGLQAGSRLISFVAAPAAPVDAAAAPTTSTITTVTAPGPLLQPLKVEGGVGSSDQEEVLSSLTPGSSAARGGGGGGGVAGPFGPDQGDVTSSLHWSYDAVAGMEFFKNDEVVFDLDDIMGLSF
Put plainly: two-hybrid.

These are yes or no findings as the source states them, for the method shown. Binding can be weak; no strength is given. Where a sequence is shown, tags or fusion partners need not be part of it.

On to OsMED16 in pGADT7 (AD fusion), for which the binding result was “binds”.

Values taken from paper PMC10984912.
